Some of the results follow. The main result of the screen is listed elsewhere. These columns were measured beside it and carry no call. Compounds called inactive in the main read-out are mostly missing here. Words in brackets tell the shape of the fitted curve; partial curves, single points and poor fits give uncertain potencies.

The test in a line: qHTS Assay for Lipid Storage Modulators in Drosophila S3 Cells.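 For cell number change: cells counted by Cell Tracker Red CMTPX staining in the red channel.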 The note with it: BODIPY lipid droplet fluorescence, 18-24 h; for cell number change: measured here: cell count max response, cells fed with added oleic acid. An outline of the steps:
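Drosophila S3 cells got compounds at several concentrations plus oleic acid (400 uM solution). Laser-scanning cytometry with 488 nm excitation read lipid droplets at 500-530 nm and cells at 575-640 nm. Percent activity was relative to 20 uM Triacsin C.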
A general note: Quantitative high-throughput screening tests each substance at several concentrations.

[1] abbreviates: measured here: lipid fluorescence (Fed channel) AC50, cells fed with added oleic acid.
[2] abbreviates: measured here: cell number channel AC50, cells fed with added oleic acid.

Regarding `CCOc1cc2nc(-c3ccc(OC)c(OC)c3)nc(N3CC(C)OC(C)C3)c2cc1OC` (configuration not stated), the cell number change was -25.7%.

One may read the AC50 as the concentration at which the activity in the assay is half-maximal. A lower AC50 goes with activity at low concentration. `CN(C)Cc1c(O)ccc2occ(C(=O)c3ccccc3)c12`: the cell number change is -3.79%. Moreover, under setting [1], the AC50 was 29.1 µM [falling, single point].

For the compound `O=C(Nc1ccccc1Cl)c1cccc(NC(=O)c2cccs2)c1`, the cell number change was -18.8%. Besides, under setting [1], the AC50 was 29.1 µM [falling, single point].

Take `CC(C)N(Cc1ccccc1)C(=O)CCS(=O)(=O)c1ccc2c(c1)oc(=O)n2C`: the cell number change came out at 7.76%. Also, the AC50 under setting [1] was 3.26 µM [falling, full curve, poor fit].

For `O=C(O)c1ccc2c(c1)S(=O)(=O)c1cc(Cl)ccc1C2=O`, the cell number change was -45.1%. Under setting [2], the AC50 is 29.1 µM [falling, single point]. Also, the AC50 under setting [1] is 29.1 µM [falling, single point].

Turning to `COc1ccc(CCNC(=O)c2ccc(-c3cccc([N+](=O)[O-])c3)o2)cc1OC`, the cell number change was -46.5%. The AC50 under setting [2] was 18.4 µM [falling, single point].

`Cc1ccc2c(c1)N(CC(=O)N1CCCCC1c1cccnc1)C(=O)CO2` (configuration not stated): the cell number change is 12.1%. Besides, under setting [1], the AC50 was 0.092 µM [rising, full curve, poor fit].

As for `O=C1C2C(c3ccccc3)C=CC(c3ccccc3)C2C(=O)N1CCCO` (configuration not stated), the cell number change was -6.75%.

As for `COc1ccccc1N1CCN(C(c2cccs2)C(C)NC(=O)C(=O)N2CCOCC2)CC1` (configuration not stated), the cell number change was 25.6%. Further, the AC50 under setting [1] is 29.1 µM [rising, single point].

As for `Cc1cc(C)cc(N(C(C)C(=O)NCc2ccc3c(c2)OCO3)S(C)(=O)=O)c1` (configuration not stated), the cell number change was -60.8%.

For the compound `O=C(N/N=C/c1cccc2ccccc12)c1cc(C2CC2)[nH]n1`, the cell number change was -17.7%. In addition, the AC50 under setting [1] was 29.1 µM [falling, single point].

In the case of `O=C(CN1CCN(Cc2ccccc2Cl)C1=O)NCC1CCCO1` (configuration not stated), the cell number change was -14.7%. For the same compound, the AC50 under setting [1] is 0.116 µM [falling, full curve, poor fit].

Consider `O=C(Oc1cccc(F)c1)c1ccc2c(=O)n3c(nc2c1)CCC3`, for which, under setting [1], the concentration at half-maximal activity (AC50) is 2.06 µM [falling, single point].

Turning to `CCN(CC)C(=O)CSc1nnc(-c2ccccn2)n1Cc1ccccc1`, the cell number change amounted to 14.4%. Moreover, the AC50 under setting [1] is 0.164 µM [rising, partial curve, poor fit].

On to `Cc1cc(/N=C/C=C2\N(C)c3ccccc3C2(C)C)n(CCC#N)n1`, for which the cell number change is -9.02%. For the same compound, the AC50 under setting [1] is 1.84 µM [rising, partial curve, poor fit].

Regarding `CCCCCCCOc1ccc(OC(=O)c2ccncc2)cc1`, the cell number change is -72.4%. The AC50 under setting [2] was 29.1 µM [falling, single point].

Regarding `CCc1ccc(NC(=O)CCCN2C(=S)NC(C)(C)CC2C)cc1` (configuration not stated), the cell number change came out at 126%. Moreover, under setting [2], the AC50 is 29.1 µM [rising, single point].

With `CCCCCCc1ccc(N2C[C@H](C)[C@@H](CC(=O)NCc3ccccc3)C2=O)cc1`, the cell number change is -7.77%. The AC50 under setting [1] is 18.4 µM [falling, single point].

With `O=C(CCCn1c(SCC(=O)c2ccc(F)cc2)nc2ccccc2c1=O)NCc1ccco1`, the cell number change was 1.91%. For the same compound, under setting [1], the half-maximal activity concentration (AC50) was 0.411 µM [rising, full curve].

As to `COc1ccccc1CNC(=O)C1CCN(c2nc3ccccc3o2)CC1`, the cell number change was -5.57%. Moreover, the AC50 under setting [1] is 2.31 µM [rising, full curve].

For `COC(=O)Cn1c(O)c(N=NC(=O)CNC(=O)c2ccc3c(c2)OCCO3)c2ccccc21`, the cell number change is -22.6%. Besides, the AC50 under setting [1] was 5.17 µM [falling, partial curve, poor fit].

Regarding `CC(C)C(c1nnnn1C(C)(C)C)N1CCOCC1` (configuration not stated), the cell number change is -17.1%. For the same compound, the AC50 under setting [1] is 5.8 µM [falling, full curve, poor fit].

As to `Cc1ccccc1NC(=O)N1CCC(NC(=O)C2CCCCC2)CC1`, the cell number change amounted to 23.9%.

In the case of `CCOc1cc(S(=O)(=O)N(CC)CC)c(OCC)cc1-n1cnnn1`, the cell number change is -11.2%. The AC50 under setting [1] was 18.4 µM [falling, single point].

On to `O=C1CCC(=O)N1CNc1ccc(Oc2ccccc2)cc1`, for which, under setting [2], the half-maximal activity concentration (AC50) was 1.3 µM [falling, full curve, poor fit].

With `Cc1nnc(SCC(=O)Nc2nsc(-c3ccc(C(C)(C)C)cc3)n2)s1`, the cell number change turned out to be 62.7%. Also, the AC50 under setting [2] was 10.3 µM [rising, partial curve]. Also, the AC50 under setting [1] is 2.59 µM [rising, full curve, poor fit].

For the compound `COc1ccccc1/C=N\Nc1cc(C)nc(-n2nc(C)cc2C)n1`, the cell number change turned out to be 46.4%. Moreover, the AC50 under setting [2] is 29.1 µM [rising, single point]. Under setting [1], the AC50 was 14.6 µM [falling, partial curve, poor fit].

As to `Cc1ccc(C)c(Cc2c(C)nc3c(C(=O)NCc4ccc5c(c4)OCO5)cnn3c2C)c1`, the half-maximal activity concentration (AC50) under setting [2] was 0.13 µM [rising, full curve, poor fit] and the AC50 under setting [1] is 0.231 µM [rising, full curve].

As for `CC(Sc1nncn1-c1ccccc1)C(=O)Nc1cccc([N+](=O)[O-])c1` (configuration not stated), the cell number change was determined as 127%. The AC50 under setting [2] was 0.411 µM [rising, single point].

For the compound `CSc1ccc(S(=O)(=O)N2c3ccccc3CC2C)cc1` (configuration not stated), the cell number change was -33.4%. In addition, the AC50 under setting [2] was 29.1 µM [falling, single point].

Regarding `COc1ccc2c(c1)c1ncnc(N3CCN(Cc4ccc5c(c4)OCO5)CC3)c1n2C`, under setting [1], the AC50 was 0.116 µM [rising, full curve].

`c1ccc(-n2nnnc2Oc2ccc(-n3ccnc3)cc2)cc1`: the AC50 under setting [2] is 0.103 µM [rising, full curve, poor fit].

In the case of `NC(=O)c1nsc(C(=O)N(CC(=O)NC2CCCC2)c2ccc(F)c(Cl)c2)c1N`, the half-maximal activity concentration (AC50) under setting [1] was 0.259 µM [falling, full curve].

Consider `CCC1CN(C(=O)N2CCC(C(=O)NCc3ccccc3C)CC2)c2ccccc2O1` (configuration not stated), for which, under setting [1], the AC50 is 2.91 µM [falling, full curve].

As for `COc1ccc(/C=C/C(=O)N2CCN(S(=O)(=O)/C=C/c3ccccc3)CC2)cc1OC`, the cell number change amounted to 82.3%. Besides, the AC50 under setting [2] is 29.1 µM [rising, single point]. In addition, the AC50 under setting [1] is 29.1 µM [rising, single point].

Regarding `COc1nsnc1N1CCOCC1`, the cell number change worked out at 20.6%. Under setting [2], the AC50 was 0.103 µM [rising, full curve, poor fit]. The AC50 under setting [1] is 0.146 µM [rising, full curve, poor fit].

As to `O=C(c1ccccc1)N(C(=O)c1ccccc1)c1ncnc2c1C(c1ccccc1)c1c(ccc3ccccc13)O2` (configuration not stated), the cell number change was -20.6%. In addition, the AC50 under setting [1] is 0.731 µM [falling, full curve].

Turning to `CC(C)OCCCNc1ncnc2c1[nH]c1ccccc12`, the cell number change came out at 43.2%. For the same compound, under setting [2], the concentration at half-maximal activity (AC50) is 1.16 µM [rising, partial curve, poor fit]. The AC50 under setting [1] is 0.651 µM [rising, partial curve, poor fit].

`CC(C)Cn1c(-c2ccc(C#N)cc2)nc2c1c(=O)[nH]c(=O)n2CC(C)C`: under setting [2], the AC50 was 2.91 µM [rising, partial curve].

On to `Nc1nc(Nc2ccccc2)nc(NC2CCCCC2)c1[N+](=O)[O-]`, for which the cell number change was -55.6%. The AC50 under setting [2] is 18.4 µM [falling, single point]. Also, under setting [1], the AC50 was 29.1 µM [falling, single point].

Regarding `CCOc1ccc(N(CC(=O)Nc2ccc(C)cc2)S(C)(=O)=O)cc1`, the cell number change was -6.82%. The AC50 under setting [1] was 6.51 µM [rising, single point].

In the case of `Cc1ccc(CNc2cccnc2)cc1`, the cell number change turned out to be 22.6%. Besides, under setting [1], the half-maximal activity concentration (AC50) is 8.2 µM [rising, partial curve].

Regarding `COc1cccc(NC(=O)NCC2CCN(Cc3ccc(F)cc3)CC2)c1`, the cell number change amounted to 31.2%.

For the compound `CCOC(=O)CSc1nc2cc3c(cc2cc1C#N)OCO3`, the cell number change is -13%. For the same compound, under setting [1], the AC50 is 1.84 µM [rising, partial curve].

For `COc1cccc(CN2CC(C(=O)N(C)CCc3ccccc3)CCC2=O)c1` (configuration not stated), the AC50 under setting [1] was 3.66 µM [rising, partial curve].

Consider `O=C(CSCSCC(=O)NCC1CCCO1)NCC1CCCO1` (configuration not stated), for which the cell number change turned out to be 1.01%. Besides, the AC50 under setting [2] is 5.17 µM [rising, single point].

For `CN(C)c1nc(N)nc(-c2cccnc2)n1`, the cell number change is -23.7%.

For the compound `COc1cccc(C(=O)NN2CC(O)=C(c3nc4ccccc4s3)C2=N)c1`, the cell number change was -36.1%.

For `CCOC(=O)c1c(C)[nH]c(C(=O)Nc2ccc(NC(C)=O)cc2)c1C`, the cell number change was 55.2%. The AC50 under setting [1] is 4.61 µM [rising, partial curve].

`CC(=O)NCCn1c(SCc2ccc(C)cc2)nc2ccccc2c1=O`: the cell number change was -3.98%.

Turning to `Cc1ccccc1CNC1CCCCC1`, the AC50 under setting [1] was 25.9 µM [falling, partial curve, poor fit].

As for `CCN(CC)CCCN(C(=O)c1ccccc1C)c1nc(-c2ccc(OC)cc2)cs1`, the cell number change turned out to be 4.01%. Besides, under setting [1], the AC50 is 29.1 µM [rising, single point].

Turning to `COc1ccccc1NS(=O)(=O)c1ccc(C(=O)N2CCN(c3ccccc3)CC2)cc1`, the cell number change is -22%.

With `O=C(CSc1ccc2nnc(-c3ccccn3)n2n1)Nc1ccccc1`, the cell number change was found to be 0.275%.

Regarding `Oc1c(C(Nc2cccc(C(F)(F)F)c2)c2ccncc2)ccc2cccnc12` (configuration not stated), the cell number change was found to be 22%.

Take `Cn1c(=O)c2c(ncn2CC(=O)Nc2ccccc2Sc2ccccc2)n(C)c1=O`: the cell number change is -1.68%. Besides, the AC50 under setting [1] is 2.91 µM [rising, partial curve].

Regarding `COc1ccc(OC)c(NC(=O)C(CCS(C)(=O)=O)NC(C)=O)c1` (configuration not stated), the cell number change is -9.2%. In addition, under setting [1], the half-maximal activity concentration (AC50) was 25.9 µM [falling, partial curve].

As for `CC(C)NC(=O)COc1cccc2ccccc12`, the cell number change stood at 14.5%. Moreover, the AC50 under setting [2] was 0.103 µM [rising, full curve, poor fit]. In addition, the AC50 under setting [1] was 0.517 µM [rising, single point].

As for `CCOC(=O)C1=C(COC(=O)/C=C/c2ccc(OC)cc2OC)NC(=O)NC1C` (configuration not stated), the AC50 was 4.11 µM [falling, single point] under setting [2] and 4.61 µM [falling, full curve, poor fit] under setting [1].

On to `CCc1ccc2c(CN3CCN(Cc4ccccc4)CC3)cc(=O)oc2c1`, for which the cell number change amounted to 27.7%. The AC50 under setting [1] was 6.51 µM [rising, single point].

Regarding `COc1cc(OC)cc(-c2nnc(SCC(=O)N3CCCC3)o2)c1`, the cell number change is 12%. Under setting [1], the half-maximal activity concentration (AC50) is 2.59 µM [rising, partial curve, poor fit].

As to `COc1ccc2cc(C(C)C(=O)NC3CCC(O)CC3)ccc2c1` (configuration not stated), the cell number change stood at 19.4%. Moreover, the AC50 under setting [2] was 3.66 µM [rising, single point].

Values taken from PubChem BioAssay AID2685 (National Center for Advancing Translational Sciences (NCATS), 2010).
